Results as given in publication PMC7616247.
These are yes or no findings as the source states them, for the method shown. Binding seen in cells or lysates may run through a third protein. These calls come from enrichment with a bait or labelling near it, and not all partners need be listed. Blank lines part the entries; values can stand above or below the molecule they belong to.

By UniProt entry, the sequences of proteins in these tests, tags left out.
UniProt Q63943: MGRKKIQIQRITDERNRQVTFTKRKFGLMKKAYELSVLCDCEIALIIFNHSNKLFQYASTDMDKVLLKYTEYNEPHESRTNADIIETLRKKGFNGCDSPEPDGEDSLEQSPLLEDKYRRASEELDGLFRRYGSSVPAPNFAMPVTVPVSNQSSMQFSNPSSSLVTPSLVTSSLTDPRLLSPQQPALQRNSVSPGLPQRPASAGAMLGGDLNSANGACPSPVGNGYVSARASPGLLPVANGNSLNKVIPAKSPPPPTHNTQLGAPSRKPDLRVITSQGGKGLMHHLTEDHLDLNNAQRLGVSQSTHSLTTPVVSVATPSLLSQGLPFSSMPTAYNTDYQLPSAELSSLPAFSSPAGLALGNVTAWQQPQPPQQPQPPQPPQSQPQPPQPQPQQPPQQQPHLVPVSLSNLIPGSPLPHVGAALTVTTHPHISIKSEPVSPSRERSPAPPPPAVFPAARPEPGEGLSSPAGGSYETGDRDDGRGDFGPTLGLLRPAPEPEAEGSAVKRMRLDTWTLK
UniProt Q60929: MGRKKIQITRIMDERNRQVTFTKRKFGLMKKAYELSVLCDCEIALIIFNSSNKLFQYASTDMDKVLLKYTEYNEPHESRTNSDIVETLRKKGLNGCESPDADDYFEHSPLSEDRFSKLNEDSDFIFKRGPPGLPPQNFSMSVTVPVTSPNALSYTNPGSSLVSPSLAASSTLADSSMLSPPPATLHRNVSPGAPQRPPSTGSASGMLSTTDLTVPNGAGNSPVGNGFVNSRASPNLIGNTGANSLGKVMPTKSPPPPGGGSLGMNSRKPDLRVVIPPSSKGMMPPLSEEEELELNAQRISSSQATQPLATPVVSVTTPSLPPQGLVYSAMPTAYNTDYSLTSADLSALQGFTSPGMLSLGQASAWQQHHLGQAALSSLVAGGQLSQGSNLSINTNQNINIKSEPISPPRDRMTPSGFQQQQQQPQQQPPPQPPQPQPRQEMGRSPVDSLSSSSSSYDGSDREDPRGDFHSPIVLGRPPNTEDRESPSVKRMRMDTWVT

Target: myocyte-specific enhancer factor 2d (Mef2d) (mouse (endogenous in the ILC2 Bl6 cell line)) (UniProt Q63943)
Assay: affinity purification with mass spectrometry; anti-Mef2d antibody on protein A/G Dynabeads, overnight at 4 C; cytoplasmic lysate (50 mM Tris pH 8.0, 0.1% NP40, 10% glycerol, 2 mM EDTA) and nuclear extract of ILC2s (ILC2 Bl6 cell line), before and after LTC4 stimulation; LC-MS/MS (Orbitrap Velos), Mascot and Scaffold

- binding: binds
Molecule: Mef2a (from UniProt Q60929 1-498)

- binding: binds
B1: NFAT1 (encoded by Nfatc2) (protein, UniProt Q60591 1-927)
chain: MDVPEPQPDPDGGDGPGHEPGGSPQDELDFSILFDYDYLNPIEEEPIAHKAISSPSGLAYPDDVLDYGLKPCNPLASLSGEPPGRFGEPDSIGFQNFLSPVKPAGASGPSPRIEITPSHELMQAGGALRGRDAGLSPEQPALALAGVAASPRFTLPVPGYEGYREPLCLSPASSGSSASFISDTFSPYTSPCVSPNNAGPDDLCPQFQNIPAHYSPRTSPIMSPRTSLAEDSCLGRHSPVPRPASRSSSPGAKRRHSCAEALVAPLPAASPQRSRSPSPQPSPHVALQDDSIPAGYPPTAGSAVLMDALNTLATDSPCGIPSKIWKTSPDPTPVSTAPSKAGLARHIYPTVEFLGPCEQEERRNSAPESILLVPPTWPKQLVPAIPICSIPVTASLPPLEWPLSNQSGSYELRIEVQPKPHHRAHYETEGSRGAVKAPTGGHPVVQLHGYMENKPLGLQIFIGTADERILKPHAFYQVHRITGKTVTTTSYEKIVGNTKVLEIPLEPKNNMRATIDCAGILKLRNADIELRKGETDIGRKNTRVRLVFRVHVPEPSGRIVSLQAASNPIECSQRSAHELPMVERQDMDSCLVYGGQQMILTGQNFTAESKVVFMEKTTDGQQIWEMEATVDKDKSQPNMLFVEIPEYRNKHIRVPVKVNFYVINGKRKRSQPQHFTYHPVPAIKTEPSDEYEPSLICSPAHGGLGSQPYYPQHPMLAESPSCLVATMAPCQQFRSGLSSPDARYQQQSPAAALYQRSKSLSPGLLGYQQPSLLAAPLGLADAHRSVLVHAGSQGQGQGSTLPHTSSASQQASPVIHYSPTNQQLRGGGHQEFQHIMYCENFGPSSARPGPPPINQGQRLSPGAYPTVIQQQTAPSQRAAKNGPSDQKEALPTGVTVKQEQNLDQTYLDDVNEIIRKEFSGPPSRNQT
